Test results from PubChem BioAssay (Tox21).
“And” between values parts separate entries of the source, which are not always exact repeats. Equal values may be shown once. The inconclusive results got no clear call from the source; some entries with a clear call stand among them for comparison. Potencies of inconclusive entries are doubtful fits and often do not repeat. The source made the active and inactive calls. Calls follow the shape of the dose curve; as a rule, active = well fitted inhibition curve with a large enough effect in the signal ratio in the repeat runs (not every such curve was filed as active); inconclusive = weak or mixed curves, or effect the other way; inactive = flat fitted curve, though single readings scatter; the % refers to the signal ratio.

Test: cAMP Responsive Elements (CRE) small molecule antagonists, cell-based qHTS assay (AID 1963591)
Details: CRE-bla HEK293T, beta-lactamase FRET ratio; activity change, negative = inhibition: at 92.4 µM (top of the series) unless noted
Description: U.S. Tox21 Program National Center for Advancing Translational Sciences [NCATS] Division of Preclinical Innovation [DPI] U.S. Environmental Protection Agency [EPA] National Institutes of Environmental Health Sciences [NIEHS] National Toxicology Program [NTP] U.S. Food and Drug Administration [FDA] Tox21 Assay Overview: CREB (cyclic-AMP Responsive Element Binding Protein) is a cellular transcription factor. It binds to certain DNA sequences called cAMP Responsive Elements (CRE) and regulates the transcription of the genes. […] This cell line can be used to find agonists/antagonists of the cyclic AMP signaling pathway. The activation of the report gene under culture conditions can be detected by fluorescence intensity. This cell line has been used to screen the Tox21 10K compound library to […].
Tox21 Assay Protocol Summary: CRE-bla Hek 293T cells were suspended in assay medium (DMEM containing 10% dialyzed FBS, 0.1 mM NEAA, 1 mM sodium pyruvate and 25 mM HEPES) and dispensed at 2,000 cells/4 uL /well into 1536-well black wall/clear bottom plates using a Multidrop Combi (ThermoFisher Scientific, Waltham, MA) dispenser. After the assay plates were incubated at 37 C/5% CO2 for 18 hrs, 23 nL of compounds dissolved in DMSO, positive controls or DMSO only was transferred to the assay plate by a pintool workstation (Kalypsys, San Diego, CA), followed by addition of 1 […] uL of 1.25uM NKH477 (0.25 uM as final concentration) in assay medium using a Flying Reagent Dispenser (Aurora Discovery, San Diego, CA). The plates were incubated at 37 C and 5% CO2 for 3 hrs. Then 1 uL of LiveBLAzer B/G FRET substrate (Invitrogen, Carlsbad, CA) was added to each well using Bioraptr Flying Reagent Dispenser (FRD, Aurora Discovery, San Diego, CA). The plates were incubated at room temperature for 2 h.
% is scaled to controls: 0 for no effect and ±100 for the full control effect; potency is read from the fitted curve at half-maximal effect.

| SMILES | activity change, negative = inhibition | Potency |
| --- | --- | --- |
| CSc1nc(NC(C)C)nc(NC(C)C)n1 | inconclusive: -7.24% |  |
| CCOP(=S)(OCC)SCSc1ccc(Cl)cc1 | inconclusive: -2.52% |  |
| BrC(Br)C(Br)(Br)Br | inconclusive: -24.7% |  |
| FC(F)C(F)(F)OCC(Cn1cncn1)c1ccc(Cl)cc1Cl (stereo not given) |  | inconclusive: 68.2 µM [single point] |
| CC(C)(Cl)[N+](=O)[O-] | inconclusive: 12.1% |  |
| CN1C2CCC(C)(C)C1CC(OC(=O)C(O)(c1cccs1)c1cccs1)C2 (stereo not given) | inactive: 19.7% [at 42.4 µM] |  |
| CSc1nc(N=[N+]=[N-])nc(NC(C)C)n1 | inconclusive: 1.39% |  |
| CC[n+]1c(-c2ccccc2)c2cc(N)ccc2c2ccc(N)cc21 |  | inconclusive: 27.2 µM [inhibitor, single point] and inconclusive: 29.8 µM [inhibitor] |
| CCCCn1cc[n+](C)c1.[Cl][Fe-]([Cl])([Cl])[Cl] | inactive: 0.119% |  |
| CC(O)C(=O)[O][Hg][c]1ccccc1 (stereo not given) |  | inconclusive: 9.69 µM [rising, full curve] |
| S=C1NCCN1 |  | inactive |
| Cc1ccc(N(SC(F)(Cl)Cl)S(=O)(=O)N(C)C)cc1 |  | inconclusive: 21.7 µM [rising, partial curve] |
| O=C(O)CC(Cl)C(=O)O (stereo not given) | inconclusive: 1.94% |  |
| CC#C[C@]1(O)CC[C@H]2[C@@H]3C[C@H](C)C4=CC(=O)CC[C@]4(C)[C@H]3CC[C@@]21C |  | inconclusive: 4.73 µM [activator, full curve, poor fit] |
| ClC1=C(Cl)[C@]2(Cl)[C@@H]3[C@@H]4C[C@@H]([C@H]5O[C@@H]45)[C@@H]3[C@@]1(Cl)C2(Cl)Cl |  | inconclusive: 59.4 µM [fluorescent] |
| CCCCCCCCCCCCn1cc[n+](C)c1 | inconclusive: -46.4% |  |
| O=C1C(Cl)=C(Cl)C(=O)c2ccccc21 |  | inconclusive: 13.7 µM [rising, full curve] and inconclusive: 12.8 µM [rising, full curve] |
| O=P(Oc1ccccc1)(Oc1ccccc1)Oc1ccccc1 |  | inactive |

A second format for some results above.
SMILES,"activity change, negative = inhibition",Potency
O=C1C(Cl)=C(Cl)C(=O)c2ccccc21,,"inconclusive: 13.7 µM [rising, full curve] and inconclusive: 12.8 µM [rising, full curve]"
O=P(Oc1ccccc1)(Oc1ccccc1)Oc1ccccc1,,inactive

Next part

| SMILES | activity change, negative = inhibition | Potency |
| --- | --- | --- |
| [Cl][Hg][c]1ccccc1 |  | inconclusive: 9.69 µM [full curve] |
| CC1(C)C(C(=O)OC(C#N)c2cccc(Oc3ccccc3)c2)C1(C)C (stereo not given) | inconclusive: -3.57% |  |
| O=S1OC[C@@H]2[C@H](CO1)[C@]1(Cl)C(Cl)=C(Cl)[C@@]2(Cl)C1(Cl)Cl (stereo not given in full) | inconclusive: 2.89% |  |
| CN1CC[C@]23c4c5ccc(O)c4O[C@H]2[C@@H](O)C=C[C@H]3[C@H]1C5 | inactive: 0.235% |  |
| CCc1cccc(CC)c1N(COC)C(=O)CCl | inconclusive: -15.1% | inconclusive: 68.6 µM [fluorescent] |
| NNC(N)=S | inconclusive: -39.5% |  |
| O=C(Cl)c1ccccc1F | inactive: 4.4% |  |
| O=CC(Br)(Br)Br |  | inconclusive: 76.7 µM [inhibitor, single point] |
| CCC/C(=N\OCC)C1=C(O)CC(CC(C)SCC)CC1=O (stereo not given) |  | inconclusive: 61.5 µM [activator, partial curve] |
| CC(c1ccc(O)cc1)(c1ccc(O)cc1)c1ccc(O)cc1 |  | inconclusive: 68.6 µM |
| CCOP(=O)(OCC)Oc1nc(Cl)c(Cl)cc1Cl | inconclusive: 0.444% |  |
| c1ccc2c(c1)sc1ccccc12 | inconclusive: 24% |  |
| COc1cc(-c2ccc(N)c(OC)c2)ccc1N | inconclusive: -14.7% | inconclusive: 65.5 µM [inhibitor] |
| O=C(NCNC(=O)NC1C(=O)NC(=O)N1CO)NC1C(=O)NC(=O)N1CO (stereo not given) | inactive: -7.63% |  |
| CC(C)NCC(O)c1ccc(N)c(C#N)c1 (stereo not given) | inactive: 21.1% [at 42.4 µM] |  |
| CCCN(CCC)CCc1c[nH]c2ccccc12 | inactive: 14.5% |  |
| C[C@]12Cc3nonc3C[C@@H]1CC[C@@H]1[C@@H]2CC[C@@]2(C)[C@H]1CC[C@]2(C)O |  | inconclusive: 26.6 µM [rising, partial curve] |
| CCCCCCCCn1cc[n+](C)c1 | inconclusive: -25.4% |  |

Same assay, conditions: CRE-bla HEK293T, beta-lactamase FRET ratio; at 92.4 µM (top of the series)

| SMILES | activity change, negative = inhibition |
| --- | --- |
| CCCCCCCCCCCCn1cc[n+](C)c1 | inactive: -3.32% |
| CC1(C)C(C(=O)OC(C#N)c2cccc(Oc3ccccc3)c2)C1(C)C (stereo not given) | inactive: -7.2% |
